Experimental data taken from PubChem BioAssay AID504327 (National Center for Advancing Translational Sciences (NCATS), 2011).
“And” between values parts separate entries of the source, which are not always exact repeats. Identical values can stand only once. Out of some 390,000 compounds screened, about 820 (0.21%) were called active. The inconclusive results got no clear call from the source; some entries with a clear call stand among them for comparison. The call rests on the fitted dose curve; in most records, active means well fitted inhibition curve with a large enough effect; inconclusive means small, poorly fitted or top-dose-only effect, or another doubt; inactive means no such curve, though single readings can be large or run the other way. Potencies beside an inconclusive call are fits to weak or partial responses and may not hold up. More than one record can exist for a structure, and the calls need not agree.

The chains behind the UniProt entries cited, without tags or fusion partners.
UniProt Q92830, whole entry, looked up: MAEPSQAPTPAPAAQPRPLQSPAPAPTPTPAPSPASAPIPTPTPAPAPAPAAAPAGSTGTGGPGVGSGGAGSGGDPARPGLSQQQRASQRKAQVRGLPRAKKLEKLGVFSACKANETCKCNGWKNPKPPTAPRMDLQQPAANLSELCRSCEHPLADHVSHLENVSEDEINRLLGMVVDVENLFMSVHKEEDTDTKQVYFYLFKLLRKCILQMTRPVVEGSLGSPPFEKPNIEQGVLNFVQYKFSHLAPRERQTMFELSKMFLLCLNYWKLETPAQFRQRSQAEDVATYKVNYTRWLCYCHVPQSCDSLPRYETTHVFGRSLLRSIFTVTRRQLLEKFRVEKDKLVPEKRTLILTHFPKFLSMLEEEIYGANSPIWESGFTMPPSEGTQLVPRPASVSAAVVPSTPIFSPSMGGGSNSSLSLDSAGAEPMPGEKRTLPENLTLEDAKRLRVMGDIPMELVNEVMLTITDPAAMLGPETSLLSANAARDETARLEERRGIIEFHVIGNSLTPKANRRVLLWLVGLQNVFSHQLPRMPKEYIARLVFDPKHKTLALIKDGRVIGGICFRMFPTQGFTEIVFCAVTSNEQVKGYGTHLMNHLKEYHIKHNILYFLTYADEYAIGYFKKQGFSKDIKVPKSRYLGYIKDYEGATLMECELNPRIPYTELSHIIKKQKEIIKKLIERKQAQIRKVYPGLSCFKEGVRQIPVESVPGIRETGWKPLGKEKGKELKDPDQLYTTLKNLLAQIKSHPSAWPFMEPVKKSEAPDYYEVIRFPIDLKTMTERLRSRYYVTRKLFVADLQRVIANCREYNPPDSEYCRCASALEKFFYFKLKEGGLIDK

Each compound was assayed against Histone acetyltransferase KAT2A (Homo sapiens) (UniProt Q92830) (assay: qHTS Assay for Inhibitors of GCN5L2). Settings: GCN5L2 HAT assay, ThioGlo1 CoA-SH fluorescence; activity change, negative = inhibition: at 58.9 µM (top of the series) unless noted.
Method in brief: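 GCN5L2 (20 nM) in 50mM HEPES pH 7.5, 0.1mM EDTA, 0.01% Tween-20 preincubated 15 min with compounds at room temperature. Reaction started with H3(1-25) 75uM, acetyl-CoA 70uM, ThioGlo1 50uM; CoA-thiol fluorescence (Ex340/Em540) read at 0 and 20 min.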
On the % scale 0 is the no-effect control and ±100 the full control effect; potency means the concentration at half of the fitted maximal effect.

Which activity change, negative = inhibition does the source give for `CCN(CC)P(=O)(NC(=O)C(Cl)(Cl)Cl)N(CC)CC.[Cl-].[Cl-].[Cl-].[Nd+3]` here?
The activity change, negative = inhibition was inconclusive: -109% [inhibitor] [at 0.501 µM].

For `O=C1C(Cl)=C(Cl)C(=O)C(Cl)=C1Cl`, which Potency is on record?
Its Potency is inconclusive: 0.891 µM [inhibitor, full curve].

With `CCOc1cc(-c2nc3c(C)cccn3c2NCC2CCCO2)ccc1O` (centres undefined) as the compound, how does the Potency read?
The Potency was inconclusive: 28.2 µM [inhibitor, single point].

With `O=C(O)c1[nH]c(=O)[nH]c(=O)c1F` as the compound, how does the “activity change, negative = inhibition” value read?
The value was inactive: 1.27%.

With `O=c1[nH]c(=S)[nH]c(O)c1/C=C1/C=c2ccccc2=N1` as the compound, how does the Potency read?
Its Potency is inconclusive: 0.141 µM [inhibitor, full curve, poor fit].

Which Potency does the source give for `CC[N+](C)(CC)CCCCOc1ccc2c(c1)C(=O)c1cc(OCCCC[N+](C)(CC)CC)ccc1-2` here?
The Potency was inconclusive: 22.4 µM [inhibitor, single point].

For `c1ccc2sc(SNC3CCCCC3)nc2c1`, which Potency is on record?
Its Potency is inconclusive: 35.5 µM [inhibitor, single point].

How did the Potency turn out when `CCCOc1ccc(C(C)=O)cc1Cc1c(O)[nH]c(=S)[nH]c1=O` was run?
Its Potency is inconclusive: 39.8 µM [inhibitor, single point].

With `CSC(=Nc1ccccc1)c1c(O)n(C)c(=O)n(C)c1=O` as the compound, how does the “activity change, negative = inhibition” value read?
The value was inactive: -8.66%.

Which Potency does the source give for `N#CC(C#N)=NNc1ccc(OC(F)(F)F)cc1` here?
Its Potency is inconclusive: 20 µM [inhibitor, single point].

For `O=C(OCC1O[C@@H](OC(=O)c2cc(O)c(O)c(O)c2)[C@@H](OC(=O)c2cc(O)c(O)c(O)c2)[C@@H](OC(=O)c2cc(O)c(O)c(O)c2)[C@@H]1OC(=O)c1cc(O)c(O)c(O)c1)c1cc(O)c(O)c(O)c1` (some centres undefined), which Potency is on record?
Its Potency is inconclusive: 39.8 µM [inhibitor, single point].

Which Potency does the source give for `COc1ccc(/C=C2\C(=O)NC(=O)N(CCC3=CCCCC3)C2=O)c(OC)c1` here?
Its Potency is inconclusive: 0.447 µM [inhibitor, single point].

Which Potency does the source give for `N#CC(C#N)=Cc1ccc(O)cc1` here?
The Potency was inconclusive: 39.8 µM [inhibitor, single point] and inconclusive: 28.2 µM [inhibitor, single point].

`COc1cc2c(c(OC)c1OC)-c1ccc(OC)c(=O)cc1[C@@H](NC=O)CC2` was tested. Which Potency did it give?
The Potency was inconclusive: 12.6 µM [inhibitor, partial curve, poor fit].

How did the Potency turn out when `Nc1nc2ccc(Cl)cc2c2nc(-c3ccco3)nn12` was run?
Its Potency is inconclusive: 39.8 µM [inhibitor, single point].

With `Cc1ccc(C[N+](C)(C)C)o1` as the compound, how does the Potency read?
The Potency was “inactive and active: 14.1 µM”.

Which “activity change, negative = inhibition” value does the source give for `Fc1ccc(CCNCc2ccc(Cl)c(Cl)c2)cc1` here?
The value was inactive: -7.16%.

`CN1CCC[C@@H]1c1cccnc1` was tested. Which Potency did it give?
Its Potency is inconclusive: 35.5 µM [inhibitor, single point].

How did the “activity change, negative = inhibition” value turn out when `COc1ccc2c3c1OC1CC(O)C=C[C@@]31CCN(C)C2` (some centres undefined) was run?
The value was inactive: -3.98%.

How did the “activity change, negative = inhibition” value turn out when `C=C1C2[C@H](OC(C)=O)[C@@H]3CC(=O)[C@]4(C)OC[C@@]3(C)[C@@]4(O)[C@@H](OC(C)=O)[C@H](OC(C)=O)[C@@]2(COC(=O)c2ccccc2)[C@@H](OC(C)=O)C[C@@H]1O` (some centres undefined) was run?
The value was inactive: 7.74%.

Which “activity change, negative = inhibition” value does the source give for `BrCC(Br)C1CCC(Br)C(Br)C1` (centres undefined) here?
Its value is inactive: -8.43%.

For `C[C@]12CC[C@@H]3c4ccc(OC(=O)N(CCCl)CCCl)cc4CC[C@H]3[C@@H]1CC[C@@H]2O`, which Potency is on record?
Its Potency is active: 12.6 µM.

How did the “activity change, negative = inhibition” value turn out when `CN1C(=O)NC(=O)/C(=C/c2ccc([N+](=O)[O-])o2)C1=O` was run?
The value was inactive: -2.32%.

Which Potency does the source give for `Fc1cccc(CN2CCN(c3ccc(Cl)cc3)CC2)c1` here?
Its Potency is inconclusive: 1.41 µM [inhibitor, full curve, poor fit].

Which Potency does the source give for `O=C(Nc1ccc(Oc2ccc(Cl)cc2)c(Cl)c1)c1cc(I)cc(I)c1O` here?
The Potency was active: 25.1 µM.

`CC1CCC(C(C)C)C(=O)C1` (centres undefined) was tested. Which Potency did it give?
The Potency was inconclusive: 39.8 µM [inhibitor, single point].

With `CCCn1cc(CN2CCCC(C(=O)c3cccc(OC)c3)C2)c(C)n1` (centres undefined) as the compound, how does the Potency read?
The Potency was inconclusive: 39.8 µM [inhibitor, single point].

For `COc1ccc2c(c[n+](C)c3c4cc5c(cc4ccc23)OCO5)c1OC`, which Potency is on record?
Its Potency is inconclusive: 31.6 µM [inhibitor, single point].

How did the Potency turn out when `CC(C)CCCC1(C)C=Cc2c(O)c3c(c(CCC(C)C)c2O1)OC12C(CC4CC1C(C)(C)OC2(CCC(C)C(=O)O)C4O)C3=O` (centres undefined) was run?
Its Potency is inconclusive: 39.8 µM [inhibitor, single point].

How did the Potency turn out when `Cc1ccc(-n2ncc(C(=O)N3CCN(c4ccc(Cl)cc4)CC3)c2C2CCN(C(=O)OC(C)(C)C)CC2)c(C)c1` was run?
Its Potency is inconclusive: 10 µM [inhibitor, partial curve].

`COC(=O)C(O)C(O)(CCC(C)C)C(=O)OC1C(OC)=CC23CCCN2CCc2cc4c(cc2C13)OCO4` (centres undefined) was tested. Which “activity change, negative = inhibition” value did it give?
The value was inactive: 11.6%.

Which “activity change, negative = inhibition” value does the source give for `CCNC(=S)NCCC1=c2ccccc2=N/C1=C\c1c(O)n(C)c(=O)n(C)c1=O` here?
The value was inactive: -5.07%.

Which “activity change, negative = inhibition” value does the source give for `Cc1cc(/C=C2\C(=O)NC(=O)N(c3ccccc3)C2=O)c(C)n1-c1ccc(C(=O)O)c(Cl)c1` here?
The value was inactive: -13.3%.

For `COc1ccc(/C=C2/C(=O)NC(=O)N(C3CCCCC3)C2=O)cc1CSc1ccccn1`, which Potency is on record?
Its Potency is inconclusive: 39.8 µM [inhibitor, single point].

Which Potency does the source give for `COc1cccc2c1C(=O)c1c(O)c3c(c(O)c1C2=O)C[C@@](O)(C(=O)CO)C[C@@H]3O[C@H]1C[C@H](N)[C@H](OC2CCCCO2)[C@H](C)O1` (some centres undefined) here?
The Potency was inconclusive: 31.6 µM [inhibitor, partial curve].

For `CCc1cc(=O)oc2cc(C)cc(OCC(=O)N3CCC(C(=O)O)(c4ccccc4)CC3)c12`, which Potency is on record?
The Potency was inconclusive: 11.2 µM [inhibitor, partial curve, poor fit].

How did the Potency turn out when `COc1cc2c3cc1Oc1c(OC)c(OC)cc4c1C(Cc1cccc(c1)Oc1ccc(c(O)c1)CC3N(C)CC2)N(C)CC4` (centres undefined) was run?
Its Potency is inconclusive: 31.6 µM [inhibitor, single point].

How did the “activity change, negative = inhibition” value turn out when `Cc1ccccc1-n1c(-c2ccco2)nc2ccccc2c1=O` was run?
Its value is inactive: -0.703%.

Which Potency does the source give for `Cn1c(O)c(C2=NNC(c3ccc(Cl)cc3)C2)c(=O)n(C)c1=O` (centres undefined) here?
The Potency was inconclusive: 7.08 µM [inhibitor, single point].

For `Cn1cc(C(=O)C(=O)N[C@H]2CN3CCC2CC3)c2ccccc21`, which Potency is on record?
Its Potency is inconclusive: 22.4 µM [inhibitor, single point].

How did the Potency turn out when `C[C@]12CC[C@H](O)C[C@@H]1CC[C@@H]1[C@@H]2CC[C@]2(C)C(=O)CC[C@@H]12` was run?
Its Potency is inconclusive: 39.8 µM [inhibitor, single point].

`CCn1cc(C(=O)O)c(=O)c2cc3c(cc21)OCO3` was tested. Which Potency did it give?
Its Potency is inconclusive: 15.8 µM [inhibitor, single point].

For `C[N+]1(C)CCN(c2ccccc2)CC1`, which Potency is on record?
Its Potency is inconclusive: 20 µM [inhibitor, partial curve].

`O=C1NC(=O)N(c2ccccc2F)C(=O)/C1=C/c1ccc(Sc2nc3ccccc3[nH]2)o1` was tested. Which Potency did it give?
The Potency was inconclusive: 35.5 µM [inhibitor, single point].

Which Potency does the source give for `CCCCn1c(O)c(C(C)=NCc2ccc(F)cc2)c(=O)[nH]c1=O` here?
The Potency was inconclusive: 39.8 µM [inhibitor, single point].

Which “activity change, negative = inhibition” value does the source give for `Cc1cc(C)cc(N2C(=O)NC(=O)/C(=C\c3cc(C)n(C)c3C)C2=O)c1` here?
The value was inactive: -2.65%.

`Cc1ccc(N2C(=O)NC(=O)/C(=C\c3cc(C)n(-c4cc(C(=O)O)cc(C(=O)O)c4)c3C)C2=O)cc1` was tested. Which Potency did it give?
The Potency was inconclusive: 6.31 µM [inhibitor, single point].

Which “activity change, negative = inhibition” value does the source give for `CCCN1CCO[C@@H]2c3cc(O)ccc3OC[C@@H]21` here?
Its value is inactive: -17.3%.

Which Potency does the source give for `CCOC(=O)c1ccc2c(c1)N(C)C(=O)c1ccccc1S2` here?
The Potency was inconclusive: 3.16 µM [inhibitor, partial curve].

With `Cc1ccc2cc3cc(C(=O)N4CCC5(CC4)OCCO5)oc3nc2c1` as the compound, how does the Potency read?
The Potency was inconclusive: 6.31 µM [inhibitor, single point].

Which Potency does the source give for `COc1ccc2c3c([nH]c2c1)C(C)=NCC3` here?
Its Potency is inconclusive: 7.94 µM [inhibitor, partial curve] and inconclusive: 22.4 µM [inhibitor, single point].

Which Potency does the source give for `O=C1NC(=S)N(c2ccccc2)C(=O)/C1=C/c1ccco1` here?
The Potency was inconclusive: 28.2 µM [inhibitor, single point].

Which Potency does the source give for `C#CCN1C(C)=C(C(=O)CCO)[C@@H](c2cccc(-n3oo3)c2)C(C(=O)OC)=C1C` here?
Its Potency is inconclusive: 31.6 µM [inhibitor, single point].

How did the Potency turn out when `CC1CN(CC(=O)c2ccccc2Cl)CC(C)O1` (centres undefined) was run?
Its Potency is inconclusive: 15.8 µM [inhibitor, partial curve].

For `CC[C@H](C)[C@H](NC(=O)[C@H](CCCN=C(N)N)NC(=O)[C@H](CCCN=C(N)N)NC(=O)[C@H](CC(C)C)NC(=O)[C@H](Cc1ccccc1)NC(=O)CNC(=O)CNC(=O)[C@@H](N)Cc1ccc(O)cc1)C(=O)O`, which “activity change, negative = inhibition” value is on record?
The value was inactive: 1.22%.

Which “activity change, negative = inhibition” value does the source give for `O=C(c1ccccc1)C(CN1CCCC1)c1ccccc1` (centres undefined) here?
Its value is inactive: -1.57%.

Which Potency does the source give for `CC(C)=CCC[C@]1(C)[C@@H](CC=C(C)C)C[C@@]2(CC=C(C)C)C(=O)[C@]1(C(=O)C(C)C)C(=O)C(CC=C(C)C)=C2O` here?
The Potency was active: 28.2 µM.

With `Fc1ccccc1CCNCc1cccc(Cl)c1Cl` as the compound, how does the Potency read?
Its Potency is inconclusive: 7.08 µM [inhibitor, single point].

Which Potency does the source give for `COc1ccc2c3c1OC1C(O)C=CC4C(C2)[N+](C)(C)CCC341` (centres undefined) here?
The Potency was inconclusive: 39.8 µM [inhibitor, single point].

How did the “activity change, negative = inhibition” value turn out when `Fc1ccc(CNCCc2ccccc2)cc1` was run?
Its value is inactive: -13.6%.

How did the “activity change, negative = inhibition” value turn out when `CCCOc1ccc2[nH]cc(C3=CCNCC3)c2n1` was run?
Its value is inactive: -10.5%.

Which “activity change, negative = inhibition” value does the source give for `COc1ccc(N2C(=O)NC(=O)/C(=C/c3ccc(N4CCOCC4)cc3)C2=O)cc1` here?
The value was inactive: -3.68%.

For `COc1ccc(-n2c(SC)nc3ccccc3c2=O)cc1`, which “activity change, negative = inhibition” value is on record?
Its value is inactive: -0.902%.

`CC(COc1ccccc1)N(CCCl)Cc1ccccc1` (centres undefined) was tested. Which Potency did it give?
Its Potency is inconclusive: 25.1 µM [inhibitor, single point].
